A: 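Growth of Mycobacterium tuberculosis over 4 days (cholesterol / DPPC medium with tyloxapol); the read-out is not stated. Compounds at 50 µM. Direction is inferred from retests: higher values go with more growth inhibition. Size under these conditions: about 69,000 compounds, about 370 of them at 50% or above in at least one test.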
B: 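Phenotypic screen: M. tuberculosis growth, glucose 7H9 medium, 3 days; the read-out is not stated. Compounds at 50 µM. The record gives no direction; compounds that gave an IC50 in retests scored well above the rest, so higher reads as more growth inhibition. About 69,000 compounds were tested under these conditions; 1.1% (about 760) showed 50% or more at least once.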

Values are the deposited “Percent Effect”, in %. The record does not define 0% and 100%; most values in the screen are far below 50% and negative numbers occur (in some assays of this library far below -100). The compounds are a random part of those screened. Two or more numbers in one place are separate tests of the same structure; such repeats can differ widely.

With CCOCCNC(=O)C(CCSC)NC(=O)c1ccc2ccccc2n1 (stereo not drawn) the screen gave A: -6.545% and -10.07%; B: -42.27%.
With CN1CC2(CCCN(Cc3ccc(Oc4ccccc4)cc3)C2)OC1=O (stereo not drawn) the screen gave A: -13.62% and 25.62%; B: -5.222%.
With Cc1nc(-c2nnc[nH]2)sc1C(=O)N(Cc1cccnc1)C1CC1 the screen gave A: -5.798%; B: -18.89%.
With CC(NC(=O)NCCc1nc(C(F)(F)F)cs1)C(=O)N(C)C (stereo not drawn) the screen gave A: 6.083%; B: 7.621%.
With O=c1n(Cc2cccc(F)c2)nc2ncccn12 the screen gave A: -1.256%; B: -0.1488%.
With O=S1(=O)c2cccnc2OC(Cc2ccccc2)CN1CC1CC1 (stereo not drawn) the screen gave A: -12.23%; B: -0.5668%.
With O=C([C@@H](O)Cc1ccccc1)N1CCCn2cncc2C1 the screen gave A: 2.454%; B: -27.23%.
With Cc1nn(C)c(N2CCOCC2)c1CNCc1ccoc1C the screen gave A: 8.627%; B: 8.304%.
With CN(Cc1cnccn1)c1cncc(Br)c1 the screen gave A: -0.2932%; B: -7.788%.
With NC(=O)NC(=O)CCN(Cc1ccccc1)CC1CCOCC1 the screen gave A: 40.87% and 38.22%; B: 84.62%.
With Cc1ccc(C(F)(F)F)cc1NCC(=O)Nc1c(C)nn(C)c1C the screen gave A: 21.94%; B: -9.273%.
With O=c1n(Cc2ncccn2)nc(C2CCNCC2)n1-c1ccccc1 the screen gave A: -14.81%; B: 6.497%.
With COc1cccc2c1OCC(C(=O)NCCc1nnc(N)s1)C2 (stereo not drawn) the screen gave A: -8.855%; B: -2.052% and 9.704%.
With [H][C@@]12CCN(S(=O)(=O)Cc3ccc(C)cc3)[C@]1([H])CCC(=O)N2CC the screen gave A: 4.135%; B: -12.3%.
With CC(C)N1CCOCC2(CCCN(C(=O)c3cncn3C)C2)C1.O=C(O)C(F)(F)F (stereo not drawn) the screen gave A: 4.913%; B: 8.269% and -6.979%.
With Cc1ccc(C(=O)NCc2ccnc(N3CCN(C)CC3)c2)cn1 the screen gave A: 3.115%; B: -1.944% and 19.63%.
With CN(C)C(=O)CS(=O)(=O)Cc1cc(Cl)c2c(c1)OCO2 the screen gave A: -12.74%; B: -15.39%.
With CC(NC(=O)CCOc1ccccc1Cl)c1nnc2n1CCC2 (stereo not drawn) the screen gave A: -21.2%; B: 11.27%.
With CCN1CCCC(NC(=O)c2ccc(C)[nH]c2=O)C1 (stereo not drawn) the screen gave A: 15.42%; B: -20.36%.
With Cc1cc(NC(=O)CNc2ccc(Br)cc2F)on1 the screen gave A: -8.479%; B: 20.99% and 10.54%.
With O=C(O)c1cc(NS(=O)(=O)c2ccc(Br)s2)c(F)cc1F the screen gave A: -2.865%; B: -28.89%.
With CC(C)(CO)NCc1ccc(OCc2ccc3c(c2)OCCO3)cc1.Cl the screen gave A: -26.7%; B: -46.91%.
With Cc1cc(C(=O)Nc2ccn(CCCN3CCCC3)n2)no1 the screen gave A: 3.135%; B: 13.82%.
With CCOc1ccc([C@@H]2N[C@H](c3nccs3)Cc3ccsc32)cc1OC the screen gave A: -1.374% and 1.431%; B: -6.001%.
With COc1cc(OC)cc(C2(O)CCN(Cc3ncc(C)o3)CC2)c1 the screen gave A: -13.79%; B: -6.805%.
With Cc1cc(-c2cnc(N3CCN(C)CC3)nc2C(C)C)on1 the screen gave A: 12.33% and 18.88%; B: 44.4%.
With Cn1cc(CN2CCC[C@]3(C[C@H](Oc4ncccc4F)CO3)C2)cn1.O=C(O)C(F)(F)F.O=C(O)C(F)(F)F the screen gave A: 13.97%; B: 7.715%.

For reference, 2 entries once more:

Result for Cc1ccc(C(=O)NCc2ccnc(N3CCN(C)CC3)c2)cn1 was A: 3.115%; B: -1.944% and 19.63%.
Result for Cc1cc(-c2cnc(N3CCN(C)CC3)nc2C(C)C)on1 was A: 12.33% and 18.88%; B: 44.4%.

Measurements from “University of Dundee, Small-Polar-MMV Screening Library” (2021), ChEMBL document CHEMBL3988442.